No constants are given. Whether binding was seen depends on the method and setting. Binding seen in cells or lysates may run through a third protein. Some binding calls cover weakened binding; strength is not graded here. Tags and fused reporters may be left off the sequences shown.
What was measured:
Assay in all cases: co-IP
[1] = target: T1, HA-PI31-S168D (transgenic flies) (Drosophila) (UniProt Q9V637)
T1 sequence: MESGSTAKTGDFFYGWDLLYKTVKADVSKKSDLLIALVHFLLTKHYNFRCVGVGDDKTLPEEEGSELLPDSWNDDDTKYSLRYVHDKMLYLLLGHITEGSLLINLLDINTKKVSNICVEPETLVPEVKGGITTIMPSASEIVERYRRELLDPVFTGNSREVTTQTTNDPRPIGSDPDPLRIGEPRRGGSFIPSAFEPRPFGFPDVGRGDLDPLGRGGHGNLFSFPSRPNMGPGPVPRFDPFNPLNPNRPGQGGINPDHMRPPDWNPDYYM

Amino acid sequences for entries named in this document (tags omitted). A change or cut given only in a name is not applied to a line headed by its entry.
UniProt Q24117, whole entry: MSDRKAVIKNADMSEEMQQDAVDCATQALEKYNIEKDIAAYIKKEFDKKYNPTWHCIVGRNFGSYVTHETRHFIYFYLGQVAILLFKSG
UniProt O96860, whole entry: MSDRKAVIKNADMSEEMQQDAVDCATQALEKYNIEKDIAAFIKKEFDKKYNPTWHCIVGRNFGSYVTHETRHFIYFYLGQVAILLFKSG
UniProt P63167, whole entry: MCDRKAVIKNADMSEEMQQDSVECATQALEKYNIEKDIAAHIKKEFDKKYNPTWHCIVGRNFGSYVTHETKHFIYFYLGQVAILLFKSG

[2] = target: T2, HA-PI31-S168A (transgenic flies) (Drosophila) (UniProt Q9V637)
T2 sequence: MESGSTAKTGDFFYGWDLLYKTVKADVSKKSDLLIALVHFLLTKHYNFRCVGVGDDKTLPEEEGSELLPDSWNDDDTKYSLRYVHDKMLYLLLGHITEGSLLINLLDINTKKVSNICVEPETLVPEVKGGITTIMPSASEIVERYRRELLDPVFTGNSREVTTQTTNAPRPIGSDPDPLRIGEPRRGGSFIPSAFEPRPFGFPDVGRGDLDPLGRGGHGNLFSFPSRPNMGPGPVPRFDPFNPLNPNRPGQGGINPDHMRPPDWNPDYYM

[3] = target: T3, HA-PI31-S168A (expressed in S2 cells) (Drosophila) (UniProt Q9V637)
T3 sequence: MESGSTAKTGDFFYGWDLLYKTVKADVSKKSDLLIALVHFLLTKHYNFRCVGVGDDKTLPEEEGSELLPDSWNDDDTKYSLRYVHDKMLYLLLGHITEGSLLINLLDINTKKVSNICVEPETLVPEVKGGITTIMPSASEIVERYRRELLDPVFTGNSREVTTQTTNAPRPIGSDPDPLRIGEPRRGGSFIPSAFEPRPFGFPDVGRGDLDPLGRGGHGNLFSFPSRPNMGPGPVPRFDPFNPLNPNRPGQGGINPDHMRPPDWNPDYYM

[4] = target: T4, HA-PI31-S168D (expressed in S2 cells) (Drosophila) (UniProt Q9V637)
T4 sequence: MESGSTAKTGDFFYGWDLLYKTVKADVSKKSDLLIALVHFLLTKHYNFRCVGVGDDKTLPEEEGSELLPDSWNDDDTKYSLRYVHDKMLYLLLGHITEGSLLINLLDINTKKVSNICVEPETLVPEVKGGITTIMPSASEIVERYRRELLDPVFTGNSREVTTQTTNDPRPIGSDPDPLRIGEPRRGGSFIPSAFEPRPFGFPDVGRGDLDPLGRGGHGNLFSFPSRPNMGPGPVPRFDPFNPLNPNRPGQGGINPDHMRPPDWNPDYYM

[5] = target: T5, HA-PI31^Knock-in (Drosophila) (UniProt Q9V637)
T5 sequence: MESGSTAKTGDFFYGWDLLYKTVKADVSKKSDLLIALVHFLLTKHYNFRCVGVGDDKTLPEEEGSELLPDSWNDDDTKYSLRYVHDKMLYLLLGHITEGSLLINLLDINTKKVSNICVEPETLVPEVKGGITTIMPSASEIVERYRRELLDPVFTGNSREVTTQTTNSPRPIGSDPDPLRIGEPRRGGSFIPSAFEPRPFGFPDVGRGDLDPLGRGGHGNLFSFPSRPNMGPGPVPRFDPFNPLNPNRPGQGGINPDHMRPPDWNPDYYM

[6] = target: T6, HA-PI31 (UAS-HA-PI31-WT, transgenic flies) (Drosophila) (UniProt Q9V637)
T6 sequence: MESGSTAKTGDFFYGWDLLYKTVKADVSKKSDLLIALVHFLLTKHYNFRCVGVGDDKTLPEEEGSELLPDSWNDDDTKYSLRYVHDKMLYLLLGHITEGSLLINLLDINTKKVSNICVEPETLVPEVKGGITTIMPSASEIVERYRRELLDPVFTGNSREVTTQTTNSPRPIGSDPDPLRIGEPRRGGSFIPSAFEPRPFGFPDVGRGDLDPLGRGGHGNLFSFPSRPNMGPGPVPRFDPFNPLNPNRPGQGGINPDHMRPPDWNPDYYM

[7] = target: T7, HA-PI31 (wild type, expressed in S2 cells) (Drosophila) (UniProt Q9V637)
T7 sequence: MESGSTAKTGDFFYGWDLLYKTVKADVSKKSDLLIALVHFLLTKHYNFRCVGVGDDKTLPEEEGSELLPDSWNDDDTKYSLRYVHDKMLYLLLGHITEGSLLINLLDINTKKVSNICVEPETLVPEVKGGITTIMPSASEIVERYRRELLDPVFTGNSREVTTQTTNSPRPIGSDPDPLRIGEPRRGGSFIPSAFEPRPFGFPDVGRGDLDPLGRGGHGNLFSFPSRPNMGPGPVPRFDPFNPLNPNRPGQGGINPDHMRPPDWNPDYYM

[8] = target: T8, HA-hPI31 (human PI31, in HEK293 cells) (human) (UniProt Q92530)
T8 sequence: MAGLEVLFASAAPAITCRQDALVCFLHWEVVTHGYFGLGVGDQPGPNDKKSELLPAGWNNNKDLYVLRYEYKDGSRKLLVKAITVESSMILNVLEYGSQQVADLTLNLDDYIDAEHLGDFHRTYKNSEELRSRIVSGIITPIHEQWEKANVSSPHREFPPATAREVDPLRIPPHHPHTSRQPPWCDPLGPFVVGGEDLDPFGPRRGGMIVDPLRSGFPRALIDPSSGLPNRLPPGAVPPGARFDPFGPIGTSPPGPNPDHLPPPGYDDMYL

[9] = target: FLAG-dDYNLL1 (expressed in S2 cells) (Drosophila) (UniProt Q24117)

Cdlc2 (Drosophila homolog of dynein light chain LC8-type 2, dDYNLL2), endogenous (from UniProt O96860 1-89)
binding [1]: binds | binding [2]: binds | binding [3]: binds | binding [4]: binds | binding [5]: binds | binding [6]: binds | binding [7]: binds

Ctp (Drosophila homolog of dynein light chain LC8-type 1, dDYNLL1), endogenous (from UniProt Q24117 1-89)
binding [1]: binds | binding [2]: binds | binding [3]: binds | binding [4]: binds | binding [5]: binds | binding [6]: binds | binding [7]: binds

DYNLL1 of HEK293 cells (endogenous) (from UniProt P63167 1-89)
binding [8]: binds

B1: PI31 of S2 cells (endogenous) (protein, UniProt Q9V637 1-270)
chain: MESGSTAKTGDFFYGWDLLYKTVKADVSKKSDLLIALVHFLLTKHYNFRCVGVGDDKTLPEEEGSELLPDSWNDDDTKYSLRYVHDKMLYLLLGHITEGSLLINLLDINTKKVSNICVEPETLVPEVKGGITTIMPSASEIVERYRRELLDPVFTGNSREVTTQTTNSPRPIGSDPDPLRIGEPRRGGSFIPSAFEPRPFGFPDVGRGDLDPLGRGGHGNLFSFPSRPNMGPGPVPRFDPFNPLNPNRPGQGGINPDHMRPPDWNPDYYM
binding [9]: binds

B2: HA-PI31 (wild type, expressed in S2 cells) (protein, UniProt Q9V637 1-270)
chain: MESGSTAKTGDFFYGWDLLYKTVKADVSKKSDLLIALVHFLLTKHYNFRCVGVGDDKTLPEEEGSELLPDSWNDDDTKYSLRYVHDKMLYLLLGHITEGSLLINLLDINTKKVSNICVEPETLVPEVKGGITTIMPSASEIVERYRRELLDPVFTGNSREVTTQTTNSPRPIGSDPDPLRIGEPRRGGSFIPSAFEPRPFGFPDVGRGDLDPLGRGGHGNLFSFPSRPNMGPGPVPRFDPFNPLNPNRPGQGGINPDHMRPPDWNPDYYM
binding [9]: binds

B3: HA-PI31-S168D (expressed in S2 cells) (protein, UniProt Q9V637 1-270)
chain: MESGSTAKTGDFFYGWDLLYKTVKADVSKKSDLLIALVHFLLTKHYNFRCVGVGDDKTLPEEEGSELLPDSWNDDDTKYSLRYVHDKMLYLLLGHITEGSLLINLLDINTKKVSNICVEPETLVPEVKGGITTIMPSASEIVERYRRELLDPVFTGNSREVTTQTTNDPRPIGSDPDPLRIGEPRRGGSFIPSAFEPRPFGFPDVGRGDLDPLGRGGHGNLFSFPSRPNMGPGPVPRFDPFNPLNPNRPGQGGINPDHMRPPDWNPDYYM
binding [9]: binds

B4: HA-PI31-S168A (expressed in S2 cells) (protein, UniProt Q9V637 1-270)
chain: MESGSTAKTGDFFYGWDLLYKTVKADVSKKSDLLIALVHFLLTKHYNFRCVGVGDDKTLPEEEGSELLPDSWNDDDTKYSLRYVHDKMLYLLLGHITEGSLLINLLDINTKKVSNICVEPETLVPEVKGGITTIMPSASEIVERYRRELLDPVFTGNSREVTTQTTNAPRPIGSDPDPLRIGEPRRGGSFIPSAFEPRPFGFPDVGRGDLDPLGRGGHGNLFSFPSRPNMGPGPVPRFDPFNPLNPNRPGQGGINPDHMRPPDWNPDYYM
binding [9]: binds

— paper doi:10.1101/364463 (bioRxiv, 2019)
